Laboratory results reported in the supplement of paper PMC12823440, “Inhibitors supercharge kinase turnover through native proteolytic circuits” (Nature, 2025).
Structures can show the parent of a compound that is named as a salt. Some of the results follow. The calls rarely recur for the same compound in another form.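 Kinases were expressed as nanoluciferase fusions in K562 cells and luminescence was read every 4 h between 2 and 18 h as percent of control, DMSO set to 100% and a positive control to 0%. A time point counts as decreased when the signal drops significantly (2 sigma). The hit call is the authors' own, does not follow from the count of time points alone, and its rule is not shown.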

Protein sequences, listed by entry. Tags and fused reporters are not part of them. Lines headed by an entry give the natural chain unless they say otherwise; changes in a name come on top.
UniProt P28482, whole entry: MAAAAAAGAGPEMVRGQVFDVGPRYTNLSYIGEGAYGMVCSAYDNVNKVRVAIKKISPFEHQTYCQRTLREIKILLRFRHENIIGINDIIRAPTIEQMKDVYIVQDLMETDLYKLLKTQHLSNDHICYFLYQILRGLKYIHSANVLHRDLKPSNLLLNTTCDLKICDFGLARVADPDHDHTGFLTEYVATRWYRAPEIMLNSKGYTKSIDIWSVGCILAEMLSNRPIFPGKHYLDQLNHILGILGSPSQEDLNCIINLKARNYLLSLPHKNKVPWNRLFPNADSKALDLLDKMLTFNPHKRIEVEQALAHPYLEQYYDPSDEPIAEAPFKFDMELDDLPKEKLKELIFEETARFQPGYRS
UniProt P31152, whole entry: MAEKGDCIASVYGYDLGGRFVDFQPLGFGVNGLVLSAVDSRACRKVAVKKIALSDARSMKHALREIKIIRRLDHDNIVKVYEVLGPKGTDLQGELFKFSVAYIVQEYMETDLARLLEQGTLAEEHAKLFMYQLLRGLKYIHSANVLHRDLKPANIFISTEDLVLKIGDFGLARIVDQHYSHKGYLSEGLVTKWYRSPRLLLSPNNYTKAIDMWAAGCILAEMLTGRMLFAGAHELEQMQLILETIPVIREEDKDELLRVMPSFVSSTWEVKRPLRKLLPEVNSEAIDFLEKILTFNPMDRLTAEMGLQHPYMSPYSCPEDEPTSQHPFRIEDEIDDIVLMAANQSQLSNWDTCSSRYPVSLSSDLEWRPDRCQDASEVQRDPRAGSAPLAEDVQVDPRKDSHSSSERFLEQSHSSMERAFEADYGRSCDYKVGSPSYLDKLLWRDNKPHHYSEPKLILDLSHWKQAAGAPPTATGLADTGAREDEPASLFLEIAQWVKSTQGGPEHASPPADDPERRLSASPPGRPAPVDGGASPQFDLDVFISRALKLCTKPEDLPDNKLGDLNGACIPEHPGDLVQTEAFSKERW
UniProt O96013: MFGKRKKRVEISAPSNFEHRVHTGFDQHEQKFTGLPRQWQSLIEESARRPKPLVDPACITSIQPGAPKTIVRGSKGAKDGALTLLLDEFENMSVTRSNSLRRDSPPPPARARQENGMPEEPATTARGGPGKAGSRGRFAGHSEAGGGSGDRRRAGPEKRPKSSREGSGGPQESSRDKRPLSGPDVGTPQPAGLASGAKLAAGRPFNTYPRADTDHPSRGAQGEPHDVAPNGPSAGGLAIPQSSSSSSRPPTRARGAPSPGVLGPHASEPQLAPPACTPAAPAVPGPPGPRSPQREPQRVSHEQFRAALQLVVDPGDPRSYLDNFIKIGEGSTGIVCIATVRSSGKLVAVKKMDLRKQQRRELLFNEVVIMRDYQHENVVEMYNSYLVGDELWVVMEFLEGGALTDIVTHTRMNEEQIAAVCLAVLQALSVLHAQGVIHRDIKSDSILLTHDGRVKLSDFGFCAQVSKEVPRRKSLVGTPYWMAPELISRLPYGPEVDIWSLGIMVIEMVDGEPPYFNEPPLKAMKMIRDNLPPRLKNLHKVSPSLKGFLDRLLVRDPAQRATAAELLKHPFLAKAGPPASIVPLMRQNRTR
UniProt Q96KB5: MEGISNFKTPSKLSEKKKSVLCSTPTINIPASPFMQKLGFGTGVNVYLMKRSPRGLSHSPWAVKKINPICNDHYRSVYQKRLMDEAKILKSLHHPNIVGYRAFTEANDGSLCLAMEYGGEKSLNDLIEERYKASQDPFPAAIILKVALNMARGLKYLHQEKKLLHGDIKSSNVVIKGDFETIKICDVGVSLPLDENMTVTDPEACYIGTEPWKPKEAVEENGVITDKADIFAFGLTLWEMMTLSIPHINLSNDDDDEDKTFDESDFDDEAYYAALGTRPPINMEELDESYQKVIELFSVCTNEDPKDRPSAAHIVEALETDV
UniProt P09619, whole entry: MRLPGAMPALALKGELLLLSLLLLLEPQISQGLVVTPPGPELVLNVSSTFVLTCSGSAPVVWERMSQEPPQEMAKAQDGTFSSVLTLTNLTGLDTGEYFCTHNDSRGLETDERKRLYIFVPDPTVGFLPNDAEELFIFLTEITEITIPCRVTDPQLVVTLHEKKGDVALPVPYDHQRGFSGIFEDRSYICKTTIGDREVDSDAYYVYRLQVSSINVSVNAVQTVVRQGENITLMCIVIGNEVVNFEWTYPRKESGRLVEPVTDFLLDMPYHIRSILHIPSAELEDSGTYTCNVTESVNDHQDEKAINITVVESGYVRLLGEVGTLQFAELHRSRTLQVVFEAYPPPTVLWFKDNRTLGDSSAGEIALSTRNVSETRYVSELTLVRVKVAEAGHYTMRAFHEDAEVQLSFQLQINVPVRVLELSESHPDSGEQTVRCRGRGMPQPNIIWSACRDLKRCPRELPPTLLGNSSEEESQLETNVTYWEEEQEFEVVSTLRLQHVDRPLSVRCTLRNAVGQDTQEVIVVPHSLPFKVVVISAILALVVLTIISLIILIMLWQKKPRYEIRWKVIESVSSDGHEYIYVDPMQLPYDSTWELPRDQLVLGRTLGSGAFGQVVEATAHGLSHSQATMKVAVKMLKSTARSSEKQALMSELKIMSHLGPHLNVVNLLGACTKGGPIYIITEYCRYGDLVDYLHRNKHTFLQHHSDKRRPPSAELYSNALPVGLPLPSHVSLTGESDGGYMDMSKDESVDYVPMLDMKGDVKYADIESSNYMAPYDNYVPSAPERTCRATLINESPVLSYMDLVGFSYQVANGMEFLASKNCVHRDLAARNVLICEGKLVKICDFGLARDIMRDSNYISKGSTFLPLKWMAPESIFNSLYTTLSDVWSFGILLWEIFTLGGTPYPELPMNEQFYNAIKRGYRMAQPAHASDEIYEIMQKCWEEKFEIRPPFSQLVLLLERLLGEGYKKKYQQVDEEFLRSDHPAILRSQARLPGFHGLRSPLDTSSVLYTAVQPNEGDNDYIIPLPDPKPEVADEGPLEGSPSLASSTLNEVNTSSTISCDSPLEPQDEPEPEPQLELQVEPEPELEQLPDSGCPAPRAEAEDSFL
UniProt Q15118, whole entry, looked up: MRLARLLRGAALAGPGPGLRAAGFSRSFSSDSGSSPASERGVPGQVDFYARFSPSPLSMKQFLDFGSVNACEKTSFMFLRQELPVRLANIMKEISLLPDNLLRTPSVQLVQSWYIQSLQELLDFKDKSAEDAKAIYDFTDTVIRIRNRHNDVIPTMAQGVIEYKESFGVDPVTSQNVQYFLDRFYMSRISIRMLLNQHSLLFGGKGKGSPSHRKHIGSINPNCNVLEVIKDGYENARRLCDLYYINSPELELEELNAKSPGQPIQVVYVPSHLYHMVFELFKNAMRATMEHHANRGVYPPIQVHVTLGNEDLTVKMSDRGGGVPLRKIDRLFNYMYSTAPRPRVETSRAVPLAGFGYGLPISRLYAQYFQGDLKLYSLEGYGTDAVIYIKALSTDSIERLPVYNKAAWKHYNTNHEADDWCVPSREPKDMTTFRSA
UniProt O15530: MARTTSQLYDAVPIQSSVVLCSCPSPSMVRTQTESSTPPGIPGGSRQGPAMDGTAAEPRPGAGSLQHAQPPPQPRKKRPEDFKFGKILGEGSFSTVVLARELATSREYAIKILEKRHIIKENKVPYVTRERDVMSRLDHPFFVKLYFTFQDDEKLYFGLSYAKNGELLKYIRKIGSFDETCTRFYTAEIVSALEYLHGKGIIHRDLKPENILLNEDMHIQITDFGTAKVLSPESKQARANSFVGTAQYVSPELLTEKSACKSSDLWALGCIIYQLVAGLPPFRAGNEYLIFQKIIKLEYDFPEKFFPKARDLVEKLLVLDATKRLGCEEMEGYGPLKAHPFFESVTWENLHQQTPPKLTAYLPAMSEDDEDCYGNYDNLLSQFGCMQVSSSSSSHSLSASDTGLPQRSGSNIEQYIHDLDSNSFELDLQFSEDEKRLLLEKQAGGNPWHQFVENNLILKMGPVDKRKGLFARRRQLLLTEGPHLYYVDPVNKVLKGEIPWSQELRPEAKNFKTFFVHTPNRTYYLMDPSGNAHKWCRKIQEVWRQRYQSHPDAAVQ
UniProt Q13131: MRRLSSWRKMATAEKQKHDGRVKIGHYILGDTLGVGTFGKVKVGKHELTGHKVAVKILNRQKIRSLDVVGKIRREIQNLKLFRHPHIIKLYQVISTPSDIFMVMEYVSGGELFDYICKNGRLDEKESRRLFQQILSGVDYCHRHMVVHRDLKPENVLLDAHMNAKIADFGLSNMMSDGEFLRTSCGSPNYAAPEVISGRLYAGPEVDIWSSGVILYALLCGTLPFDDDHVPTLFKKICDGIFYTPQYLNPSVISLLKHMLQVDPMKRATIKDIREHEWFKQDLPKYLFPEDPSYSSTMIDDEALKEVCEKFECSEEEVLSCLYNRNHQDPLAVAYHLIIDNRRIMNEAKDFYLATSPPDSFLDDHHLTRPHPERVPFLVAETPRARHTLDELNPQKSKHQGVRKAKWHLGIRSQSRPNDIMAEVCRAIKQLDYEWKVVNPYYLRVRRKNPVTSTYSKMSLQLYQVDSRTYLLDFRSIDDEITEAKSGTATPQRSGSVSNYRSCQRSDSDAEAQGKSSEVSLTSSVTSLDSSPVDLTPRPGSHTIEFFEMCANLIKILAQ
UniProt Q05397, whole entry, looked up: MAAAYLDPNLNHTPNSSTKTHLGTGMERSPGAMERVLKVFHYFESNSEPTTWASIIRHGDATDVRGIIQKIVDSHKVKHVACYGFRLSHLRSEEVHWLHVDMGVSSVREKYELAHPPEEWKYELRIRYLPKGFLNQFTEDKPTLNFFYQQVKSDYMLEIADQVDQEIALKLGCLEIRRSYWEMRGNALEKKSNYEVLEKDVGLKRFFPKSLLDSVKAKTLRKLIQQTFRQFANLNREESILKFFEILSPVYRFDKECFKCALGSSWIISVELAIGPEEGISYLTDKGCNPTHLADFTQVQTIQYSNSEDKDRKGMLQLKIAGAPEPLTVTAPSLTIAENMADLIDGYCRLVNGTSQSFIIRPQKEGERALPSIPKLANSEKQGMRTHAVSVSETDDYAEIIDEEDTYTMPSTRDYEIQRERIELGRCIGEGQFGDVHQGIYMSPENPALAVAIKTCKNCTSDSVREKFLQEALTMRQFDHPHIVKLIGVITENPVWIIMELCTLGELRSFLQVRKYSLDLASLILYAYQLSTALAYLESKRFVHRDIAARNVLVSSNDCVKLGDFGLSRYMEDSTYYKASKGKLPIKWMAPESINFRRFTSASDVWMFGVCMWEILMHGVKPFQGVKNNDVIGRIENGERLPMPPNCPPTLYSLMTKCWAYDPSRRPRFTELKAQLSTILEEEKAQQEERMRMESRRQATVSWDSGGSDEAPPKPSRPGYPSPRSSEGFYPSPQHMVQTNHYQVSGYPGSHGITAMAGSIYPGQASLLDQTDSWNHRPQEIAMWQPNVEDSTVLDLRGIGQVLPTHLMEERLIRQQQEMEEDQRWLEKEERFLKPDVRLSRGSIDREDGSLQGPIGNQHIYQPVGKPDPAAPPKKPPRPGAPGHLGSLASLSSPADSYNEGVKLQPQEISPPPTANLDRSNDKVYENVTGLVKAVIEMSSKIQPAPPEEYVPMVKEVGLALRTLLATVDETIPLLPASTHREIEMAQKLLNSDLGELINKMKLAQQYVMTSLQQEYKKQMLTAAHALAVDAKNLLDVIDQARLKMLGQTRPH

Tests used:
Test in all cases: kinase-Nluc reporter destabilization hit call (1 = scored as downregulated) (binary); higher = compound decreases kinase abundance
Conditions in all cases: K562; 2-18 h
MAPK1 = MAPK1 (UniProt P28482)
MAPK4 = MAPK4 (UniProt P31152)
MAPKAPK2 = MAPKAPK2 (UniProt P49137)
MKNK1 = MKNK1 (UniProt Q9BUB5)
NTRK2 = NTRK2 (UniProt Q16620)
NTRK3 = NTRK3 (UniProt Q16288)
PAK4 = PAK4 (UniProt O96013)
PBK = PBK (UniProt Q96KB5)
PDGFRB = PDGFRB (UniProt P09619)
PDK1 = PDK1 (UniProt Q15118)
PDPK1 = PDPK1 (UniProt O15530)
PIK4CA = PIK4CA (UniProt P42356)
PIK4CB = PIK4CB (UniProt Q9UBF8)
PLK1 = PLK1 (UniProt P53350)
PRKAA1 = PRKAA1 (UniProt Q13131)
PRKCA = PRKCA (UniProt P17252)
PTK2 = PTK2 (UniProt Q05397)
PTK2B = PTK2B (UniProt Q14289)
RAF1 = RAF1 (UniProt P04049)
[1] = target: RAF1_S257L (clone: RAF1_mut) (UniProt P04049)

Measured: kinase-Nluc reporter destabilization hit call

O=c1cc(-c2ccc(O)c(O)c2O)oc2ccccc12 (10 µM)
inactive: MAPK1 = 0 | MAPK4 = 0 | MAPKAPK2 = 0 | MKNK1 = 0 | NTRK2 = 0 | NTRK3 = 0 | PAK4 = 0 | PBK 0 | PDGFRB 0 | PDK1 = 0 | PDPK1 = 0 | PIK4CA 0 | PIK4CB 0 | PLK1 = 0 | PRKAA1 = 0 | PRKCA 0 | PTK2 = 0 | PTK2B 0 | RAF1 = 0 | [1] 0

COc1ccc(-n2c(C)c([N+](=O)[O-])c3ccc(O)cc32)cc1 (10 µM)
inactive: MAPK1 = 0 | MAPK4 = 0 | MAPKAPK2 = 0 | MKNK1 = 0 | NTRK2 = 0 | NTRK3 = 0 | PAK4 = 0 | PBK 0 | PDGFRB 0 | PDK1 = 0 | PDPK1 = 0 | PIK4CA 0 | PIK4CB 0 | PLK1 = 0 | PRKCA 0 | PTK2 = 0 | PTK2B 0 | RAF1 = 0 | [1] 0
active: PRKAA1 = 1

CCN(C)C(=O)c1ccc2c(C(=Nc3ccc(CN4CCCCC4)cc3)c3ccccc3)c(O)[nH]c2c1 (2.5 µM)
inactive: MAPK1 = 0 | MAPK4 = 0 | MAPKAPK2 = 0 | MKNK1 = 0 | NTRK2 = 0 | NTRK3 = 0 | PAK4 = 0 | PBK 0 | PDGFRB 0 | PDK1 = 0 | PDPK1 = 0 | PIK4CA 0 | PIK4CB 0 | PLK1 = 0 | PRKAA1 = 0 | PRKCA 0 | PTK2 = 0 | PTK2B 0 | RAF1 = 0 | [1] 0

Cc1cc(Nc2nc(N[C@@H](C)c3ncc(F)cn3)ncc2Cl)[nH]n1 (10 µM)
inactive: MAPK1 = 0 | MAPK4 = 0 | MAPKAPK2 = 0 | MKNK1 = 0 | NTRK2 = 0 | NTRK3 = 0 | PAK4 = 0 | PBK 0 | PDGFRB 0 | PDK1 = 0 | PDPK1 = 0 | PIK4CA 0 | PIK4CB 0 | PLK1 = 0 | PRKAA1 = 0 | PRKCA 0 | PTK2 = 0 | PTK2B 0 | RAF1 = 0 | [1] 0

C=CC(=O)N1CCC(Oc2cc3c(Nc4ccc(Cl)c(Cl)c4F)ncnc3cc2OC)CC1 [Poziotinib] (2.5 µM)
inactive: MAPK1 = 0 | MAPK4 = 0 | MAPKAPK2 = 0 | MKNK1 = 0 | NTRK2 = 0 | NTRK3 = 0 | PAK4 = 0 | PBK 0 | PDGFRB 0 | PDK1 = 0 | PDPK1 = 0 | PIK4CA 0 | PIK4CB 0 | PLK1 = 0 | PRKAA1 = 0 | PRKCA 0 | PTK2 = 0 | PTK2B 0 | RAF1 = 0 | [1] 0

O=c1[nH]ccc2cc(OC3CCNCC3)ccc12 (10 µM)
inactive: MAPK1 = 0 | MAPK4 = 0 | MAPKAPK2 = 0 | MKNK1 = 0 | NTRK2 = 0 | NTRK3 = 0 | PAK4 = 0 | PBK 0 | PDGFRB 0 | PDK1 = 0 | PDPK1 = 0 | PIK4CA 0 | PIK4CB 0 | PLK1 = 0 | PRKAA1 = 0 | PRKCA 0 | PTK2 = 0 | PTK2B 0 | RAF1 = 0 | [1] 0

N=C(N)NC(=N)NCCc1ccccc1 [Phenformin (hydrochloride)] (10 µM)
inactive: MAPK1 = 0 | MAPK4 = 0 | MAPKAPK2 = 0 | MKNK1 = 0 | NTRK2 = 0 | NTRK3 = 0 | PAK4 = 0 | PBK 0 | PDGFRB 0 | PDK1 = 0 | PDPK1 = 0 | PIK4CA 0 | PIK4CB 0 | PLK1 = 0 | PRKAA1 = 0 | PRKCA 0 | PTK2 = 0 | PTK2B 0 | RAF1 = 0 | [1] 0

Nc1n[nH]c2cc(-c3ccc(=O)n(Cc4cccc(Cl)c4)c3)ccc12 (10 µM)
inactive: MAPK1 = 0 | MAPK4 = 0 | MAPKAPK2 = 0 | MKNK1 = 0 | NTRK2 = 0 | NTRK3 = 0 | PAK4 = 0 | PBK 0 | PDGFRB 0 | PDK1 = 0 | PDPK1 = 0 | PIK4CA 0 | PIK4CB 0 | PLK1 = 0 | PRKAA1 = 0 | PRKCA 0 | PTK2 = 0 | PTK2B 0 | RAF1 = 0 | [1] 0

CN(C)c1ncnc2nc[nH]c12 [6-(Dimethylamino)purine] (10 µM)
inactive: MAPK1 = 0 | MAPK4 = 0 | MAPKAPK2 = 0 | MKNK1 = 0 | NTRK2 = 0 | NTRK3 = 0 | PAK4 = 0 | PBK 0 | PDGFRB 0 | PDK1 = 0 | PDPK1 = 0 | PIK4CA 0 | PIK4CB 0 | PLK1 = 0 | PRKAA1 = 0 | PRKCA 0 | PTK2 = 0 | PTK2B 0 | RAF1 = 0 | [1] 0

Reprinted from above (two entries):
N=C(N)NC(=N)NCCc1ccccc1 [Phenformin (hydrochloride)] (10 µM)
inactive: MAPK1 = 0 | MAPK4 = 0 | MAPKAPK2 = 0 | MKNK1 = 0 | NTRK2 = 0 | NTRK3 = 0 | PAK4 = 0 | PBK 0 | PDGFRB 0 | PDK1 = 0 | PDPK1 = 0 | PIK4CA 0 | PIK4CB 0 | PLK1 = 0 | PRKAA1 = 0 | PRKCA 0 | PTK2 = 0 | PTK2B 0 | RAF1 = 0 | [1] 0

Nc1n[nH]c2cc(-c3ccc(=O)n(Cc4cccc(Cl)c4)c3)ccc12 (10 µM)
inactive: MAPK1 = 0 | MAPK4 = 0 | MAPKAPK2 = 0 | MKNK1 = 0 | NTRK2 = 0 | NTRK3 = 0 | PAK4 = 0 | PBK 0 | PDGFRB 0 | PDK1 = 0 | PDPK1 = 0 | PIK4CA 0 | PIK4CB 0 | PLK1 = 0 | PRKAA1 = 0 | PRKCA 0 | PTK2 = 0 | PTK2B 0 | RAF1 = 0 | [1] 0

(continued)

CC(=O)Nc1nc(C)c(-c2nc(N3CCCC(O)C3)no2)s1 (stereo not given) (10 µM)
inactive: MAPK1 = 0 | MAPK4 = 0 | MAPKAPK2 = 0 | MKNK1 = 0 | NTRK2 = 0 | NTRK3 = 0 | PAK4 = 0 | PBK 0 | PDGFRB 0 | PDK1 = 0 | PDPK1 = 0 | PIK4CA 0 | PIK4CB 0 | PLK1 = 0 | PRKAA1 = 0 | PRKCA 0 | PTK2 = 0 | PTK2B 0 | RAF1 = 0 | [1] 0

CC(C)(C)C(=O)N1N=CC[C@H]1c1ccccc1 (10 µM)
inactive: MAPK1 = 0 | MAPK4 = 0 | MAPKAPK2 = 0 | MKNK1 = 0 | NTRK2 = 0 | NTRK3 = 0 | PAK4 = 0 | PBK 0 | PDGFRB 0 | PDK1 = 0 | PDPK1 = 0 | PIK4CA 0 | PIK4CB 0 | PLK1 = 0 | PRKAA1 = 0 | PRKCA 0 | PTK2 = 0 | PTK2B 0 | RAF1 = 0 | [1] 0

CN(C)c1nc2c(Br)c(Br)c(Br)c(Br)c2n1CC(=O)O (10 µM)
inactive: MAPK1 = 0 | MAPK4 = 0 | MAPKAPK2 = 0 | MKNK1 = 0 | NTRK2 = 0 | NTRK3 = 0 | PAK4 = 0 | PBK 0 | PDGFRB 0 | PDK1 = 0 | PDPK1 = 0 | PIK4CA 0 | PIK4CB 0 | PLK1 = 0 | PRKAA1 = 0 | PRKCA 0 | PTK2 = 0 | PTK2B 0 | RAF1 = 0 | [1] 0
